These results are taken from PubChem BioAssay AID1508600 (Functional Genomics Laboratory (NCATS/FGL), 2020).

About 3,700 (7%) of roughly 53,000 sequences were called active.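 Rule for the calls: active = gene knockdowns whose robust z-score for IL-1 alpha signal is at least 2 or at most -2, so actives lie on both sides; inactive = the rest.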 The list shows a part of the results.

The experiment is described as follows: Components of the Cytosolic LPS Sensing Pathway: Gene Identification via Genome-wide siRNA Screen.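 Note: robust z of the log signal after scaling to non-targeting control siRNA wells of the plate.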 The following applies: RAW264.7 macrophages, IL-1a HTRF, actives lie on both sides, screened at 100 nM (by protocol), cells primed 5 h with Pam3CSK4 first. In outline:
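Knockdown: 100 nM siRNA, 48h, RAW264.7. Stimulation: Pam3CSK4 5 h, then LipidA via TransIT-TKO 24 h. Output: supernatant IL-1a HTRF, negative-control-normalized, log robust z-score; viability by CellTiter-Glo.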
A general note: Time-resolved FRET reads energy transfer from a long-lived donor to a nearby acceptor.
Regarding GCGCGUGUGAAAUAAACAUTT against Armh3, the z-score is inactive: -1.94.

Turning to GCCUAUGCCAAUUUGUGCGTT against Paqr6, the z-score is inactive: 0.295.

GGAAAGUAAAGUUUUCUCCTT against Vps26b: the z-score was inactive: 1.01.

Regarding GCUCUUGGGUUACUGGGUUTT against Olfr784, the z-score was inactive: 0.477.

GGACUUGUCAUUAUUGUCCTT against Olfr397: the z-score is inactive: 0.0421.

As to GGACAGUAUGAAUUUGAAUTT against Lcp1, the z-score is active: 2.44.

With CGCAGGUGAGAGCAAUGUUTT against Lrrn4cl, the z-score is inactive: -1.35.

Consider CCCAAUAGGAGCUCAUCAUTT against Nr4a3, for which the z-score is inactive: -1.16.

For the sequence GGUCGUUAUCACUCUCUAUTT against Pkd1l3, the z-score was active: 3.34.

Regarding GGAUGCUCAAGGAAAACAGTT against Lipk, the z-score was inactive: -1.14.

GCAUGAUCGUGUUUGUUUATT against Srpk2: the z-score was inactive: 0.722.

As for GGGCUCAUUGCUAAAACACTT against Sgcg, the z-score is inactive: -0.221.

Turning to GGAGAUUGACACCAACACCTT against Clic5, the z-score was inactive: -1.7.

GGUGAUGCAAGAAGAAAUUTT against Aldh3a2: the z-score is inactive: 0.169.

In the case of CCCACAAGUUUCAUCUGACTT against Aknaos, the z-score is inactive: -0.164.

In the case of GGAGAAUGCACAGUUCACUTT against Krt16, the z-score was inactive: 1.7.

Consider GGAUCAACAAGGAACUGGCTT against Ap2a1, for which the z-score is inactive: -1.25.

GGAACCCUUGGUUUUUUUUTT against Oas1a: the z-score was inactive: 0.387.

With GGAAAAGAUCUCGUGGUUGTT against Slc25a17, the z-score was inactive: -0.959.

For the sequence GGGACAGACCUUGCCUUUGTT against Sac3d1, the z-score is inactive: 0.209.

Consider GGAUGAAAAGAUUGAACUCTT against Gart, for which the z-score was active: 3.22.

On to GGAAACAUGGCCAUGUUUUTT against Cyp7a1, for which the z-score was inactive: -0.115.

On to GCACAACACGGCUAAACCUTT against Dph7, for which the z-score is inactive: -0.911.

CCUGUUGUAUUGUUUAGCGTT against Ago2: the z-score was inactive: -0.402.

Consider CCAGCAAAAUCACUUAAUATT against Emb, for which the z-score was inactive: -0.648.

For GGAAGAAGGCAUUGUGAAGTT against Rps6ka2, the z-score is inactive: 1.42.

Turning to CCUCCACCGAAAUAAUUAATT against Dnajb3, the z-score was inactive: 0.655.

In the case of GCCUUUGUGAGGAUUAAACTT against Fam83f, the z-score was inactive: -0.000611.

Take CCAUGCGGCUUGUAAUAUGTT against AU022252: the z-score was inactive: 0.279.

GGAUACGUUACUCCAGUCATT against Ctsk: the z-score is inactive: -0.647.

Take GGGACAGAAAGGAAAGACUTT against Ndufb4: the z-score was inactive: 0.0331.

Consider GGCUGUCGAGUAUAAAUCUTT against Stfa3, for which the z-score is inactive: -0.564.

Turning to CCCGUCAAUACCACUUACCTT against Sidt2, the z-score was active: 2.19.

As to GGACGAAUGUCACAAUUUUTT against Sema4f, the z-score was inactive: 0.167.

With GCCAUCAUCCAGCUAUGACTT against Olfr360, the z-score is inactive: -0.782.

On to GCCCAAAAAGUGCUUGCUGTT against Tmem215, for which the z-score is inactive: -1.76.

As for GCUCCGUCAGACAAAGAAGTT against Apex1, the z-score is inactive: 0.0609.

On to GAUCAAAGAUCAUGUGGCCTT against Fau, for which the z-score was inactive: -0.541.

Regarding GGGUUUAUGUAAGUUUCCUTT against Nelfcd, the z-score is inactive: -1.47.

With GGAAUGAGAAGUUCUAUGATT against Chrna7, the z-score is inactive: 0.282.

In the case of GGGCCAUUUUAGGUCCUUUTT against Rbm7, the z-score is inactive: 0.112.

Regarding GGAUUUGCAUAUGUUCAAUTT against Srsf10, the z-score was inactive: -0.0373.

Consider GGAACAGUCUGAAAUACACTT against Usp18, for which the z-score was inactive: -0.907.

For GGUGCUGCUUUAUUCCUGGTT against Dhcr7, the z-score is inactive: -0.632.

GGAAAUGAAGCAUCUGUAUTT against Txnip: the z-score was active: -2.3.

In the case of GGACAAGCAAGGUCAAUCATT against Taar1, the z-score was inactive: -1.11.

On to CCUCUUCAGAAGCUCUCCUTT against Olfr1320, for which the z-score was inactive: -1.11.

Regarding GCUCCUUAAACAGUAAUCATT against Adipor2, the z-score was inactive: 1.9.

For the sequence GGCUGAACAAGAGAAACCATT against Ppdpf, the z-score was active: -2.49.

Consider CCGCGUGACCAACUUUGUGTT against Tab1, for which the z-score was inactive: -0.981.

Take GGAUAGCAUGCUUCCUGAGTT against Rhbdf2: the z-score is active: -2.19.

For the sequence GGAUGAAAUCAAAAUGGAUTT against Zfp622, the z-score was inactive: 0.45.

On to GGCCUUCACUACGAGGGAATT against Pfkl, for which the z-score is inactive: 0.523.

On to GGAUCAAGGAGGAUUUCAATT against Tprg, for which the z-score was active: 2.38.

Regarding GGCGAUGAAGAAGUAAUUUTT against Appl2, the z-score was inactive: -1.2.

As for GCCGAUAUGAGGAUAGCGATT against Cckar, the z-score is inactive: 0.718.

Take GACACUGAACAACGACAUUTT against Prss3: the z-score was inactive: -0.578.

Consider GGUCUUCUUUGUGUUCGCUTT against Olfr283, for which the z-score is inactive: -0.0406.

Turning to AGUUAGCCUUGAGGAGAAUTT against Olfr1512, the z-score was inactive: 0.503.

Take GGUCAUCUGUGUUUACACGTT against AI837181: the z-score was inactive: 1.5.

Turning to CGGAUCUUGUCAAUAACCATT against Angptl1, the z-score is inactive: 0.295.

CCUGCGUAGAAAGAUGAUGTT against Tekt2: the z-score was inactive: 0.0498.

On to GGAGUAUUUCUACACCAGCTT against Ccl5, for which the z-score is inactive: -0.62.

As to GGACCCAAGCCUAAAACCUTT against Cbx8, the z-score is inactive: -0.637.

For CGGGUCCUUUUCCACUACATT against Rptor, the z-score is inactive: 0.942.

On to CGCAAACAGGAUUGUUCUATT against Lgals3, for which the z-score was inactive: 0.158.

Regarding GGAAAUAGAAACCUCAAGUTT against Sipa1l1, the z-score is inactive: -0.481.

Regarding GGCCACUUGUGGACAGUUUTT against Rassf7, the z-score was inactive: 0.24.

For GAUUGUGCCUUAUCUCUAATT against Vmn1r203, the z-score is inactive: 1.28.

Regarding GCCUCAUCCCUAUAGUCCUTT against Spaca9, the z-score was inactive: -0.257.

With GGUGUUUGAAUGGAAGGACTT against Idua, the z-score is inactive: 0.33.

Take CGUUCUCGUUCUGUUUAUUTT against Ctps2: the z-score was inactive: 0.3.

Take GCUGCCUUUAAUGUGGCAATT against Tcl1: the z-score was inactive: -0.85.

CCAAUUUGGCUUCACUUCCTT against Fpr3: the z-score is inactive: 1.59.

Consider GGAAGACCUAAACAACGGCTT against Dusp10, for which the z-score is inactive: -1.55.

CCAUUCCUGUCCCUUAAUATT against Pip4p1: the z-score is inactive: -0.237.

For the sequence GGAUUCUCAUCUGUCAUAATT against Slc26a3, the z-score is inactive: 0.141.

With CGCUAACUGGAAAGAAACUTT against Dusp19, the z-score was inactive: 0.43.

Consider GCAUCAAUGGGCUAUUGAUTT against Cep70, for which the z-score is inactive: 0.414.

For the sequence GCAUGCAGUAAUUGAAAUCTT against Mdc1, the z-score was inactive: -0.198.

As for CCAAUCUUCUCCUCAAGACTT against Olfr101, the z-score is inactive: -0.0712.

With GCCAUAACCUACAUUGUCATT against Loxhd1, the z-score is active: -2.86.

GCUGCUGCUAUAUAUUGAATT against Wsb1: the z-score was inactive: 1.01.

On to GGAGUAUAAAAAGUUCAGATT against Ell3, for which the z-score is inactive: 0.222.

GCCGAUUUUAUCUUUGUCATT against Dpysl5: the z-score is inactive: -0.422.

Take GCUUCAUUUGUGCCUCUAUTT against Rptor: the z-score is inactive: 1.05.

Regarding GGUUAAGUGUGUUAAGUUCTT against Cipc, the z-score is inactive: 1.48.

As for GGAUGCAGCUAACAAUUACTT against Tuba8, the z-score was inactive: 1.05.

For the sequence GCAGAUUGAUUAUACGGUATT against Tmem106b, the z-score is inactive: 0.239.

Consider GGUCCUUAAUGAGCCUGGATT against Ankrd34c, for which the z-score was inactive: -0.929.

For the sequence GGAUCAUCUGCAUAAUAGATT against Rpl39l, the z-score was inactive: 0.161.

For the sequence GCUAAAGUGAGCAGCGGGATT against Gipc3, the z-score is inactive: 0.218.

As for GCAAAUGACUUCCAACAAUTT against Uqcrq, the z-score was active: 3.84.

Turning to GCAGAGUGUUUAAGUUUAUTT against Cftr, the z-score is inactive: 1.42.

Take CCAUAUCUCAUGAGGAAGGTT against Olfr1368: the z-score was inactive: 1.53.

As for GGGCAGCUGCUAUUUAUUUTT against Fosl1, the z-score was inactive: 0.659.

As for GGAUCAGUGCCUUUGGCUATT against Rhoc, the z-score was inactive: -1.75.

In the case of GGAGCUCGAAAAAUUUCAATT against Igfl3, the z-score was active: 2.13.

For GGACAAUGUGGAGAAGGAATT against BC048403, the z-score is inactive: -1.52.

As to GGCUGCUGUAACGAUGAAGTT against Vegfa, the z-score was inactive: -0.794.

For the sequence GGACAGAGAUCAAUAUUAATT against Rxfp3, the z-score is inactive: -0.0718.

As for GCGGGAAAUAGCUGACUUATT against Rabep1, the z-score was inactive: -0.636.

GGCCUUGGAACAGAAUCCGTT against Sugt1: the z-score is inactive: 0.267.

For CCUUAUUGAGACGAAUACGTT against Fastkd1, the z-score was inactive: -0.958.

In the case of GCUCUCAUCGUCCCUGAAUTT against Cln8, the z-score is inactive: -0.925.

In the case of GCACGAAUGCCUUUUUAGATT against Mphosph8, the z-score was inactive: 0.32.

Regarding CGGUAUAUCCAAAUUUCUCTT against Art2a, the z-score was inactive: 0.87.
